## Library screening results

Sequences of proteins named here, by UniProt entry; tags and fusion partners are left off.
UniProt E9BF75, entry or part of it: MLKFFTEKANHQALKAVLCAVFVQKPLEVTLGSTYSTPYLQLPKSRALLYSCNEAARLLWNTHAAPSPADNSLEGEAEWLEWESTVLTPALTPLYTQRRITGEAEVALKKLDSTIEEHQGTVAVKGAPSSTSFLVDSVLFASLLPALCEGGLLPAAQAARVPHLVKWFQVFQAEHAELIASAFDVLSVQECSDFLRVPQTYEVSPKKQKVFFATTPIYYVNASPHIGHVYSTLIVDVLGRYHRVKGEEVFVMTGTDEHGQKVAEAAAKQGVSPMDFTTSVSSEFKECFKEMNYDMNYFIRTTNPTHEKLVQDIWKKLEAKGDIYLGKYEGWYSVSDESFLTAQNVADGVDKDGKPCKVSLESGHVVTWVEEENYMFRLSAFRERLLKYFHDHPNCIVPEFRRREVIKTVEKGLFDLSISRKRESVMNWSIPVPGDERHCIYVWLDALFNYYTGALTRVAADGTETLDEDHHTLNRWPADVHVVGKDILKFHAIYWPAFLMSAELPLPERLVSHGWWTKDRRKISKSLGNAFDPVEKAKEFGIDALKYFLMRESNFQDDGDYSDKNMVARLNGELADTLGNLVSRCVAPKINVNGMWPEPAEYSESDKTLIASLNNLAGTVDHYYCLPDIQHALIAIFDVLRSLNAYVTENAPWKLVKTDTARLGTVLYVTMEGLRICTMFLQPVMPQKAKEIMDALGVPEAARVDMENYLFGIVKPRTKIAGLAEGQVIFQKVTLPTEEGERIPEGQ

LdMetRS: 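Primary screen of methionyl-tRNA synthetase; the read-out is not stated. Target: Methionyl-tRNA synthetase (putative), Leishmania donovani (UniProt E9BF75). The test concentration is not given. The values are filed as inhibition. Of about 68,000 compounds tested this way, about 24 (0.035%) reached 50% or more in at least one test.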
Mtb heat-shock: 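Assay on Mycobacterium tuberculosis, filed only as a heat shock assay from Cornell; the read-out is not stated. The concentration is filed as 10 mM, unlikely as a test dose, so the dose is not known. Direction is inferred from retests: higher values go with stronger inhibition. Size under these conditions: about 69,000 compounds, about 930 of them at 50% or above in at least one test.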

Results are percentages, as filed. How 0% and 100% were set is not recorded. Most values in the screen are low, and negative values occur. This is an unselected part of the compounds tested.

O=S(=O)(Cc1ccc(F)cc1)NCCc1nnc2n1CCC2 gave LdMetRS: 18.08%; Mtb heat-shock: -37.14%.
Cc1nn(CCC#N)c(C)c1[C@@H]1C=C[C@@H](NCc2cccc(Cl)c2)C1 gave LdMetRS: 8.242%; Mtb heat-shock: 3.398%.
O=C(O)C(F)(F)F.O=C(O)C(F)(F)F.[H][C@@]12OCCN(Cc3csc(C)n3)[C@@]1([H])CC[C@@H]2OCc1ccccn1 gave Mtb heat-shock: -8.633%.
CCNC(=O)C1CCCN(C(=O)Nc2cc(C#N)ccc2OCC)C1 (configuration not stated) gave LdMetRS: 14.76%; Mtb heat-shock: -21.61%.
CCCN1CCC(CC(=O)NCc2cc(C)nn2C)CC1 gave LdMetRS: 20.96%; Mtb heat-shock: 12.83%.
CN(Cc1cnn(C)c1)Cc1nc(CCc2ccccc2)no1 gave LdMetRS: -0.7117%; Mtb heat-shock: -4.976%.
[H][C@]12CN(C(=O)OC)CCN1C[C@@H](c1ccccc1)[C@@H]2C(=O)OCC gave Mtb heat-shock: 7.169%.
Cn1cnc(-c2cc(C(=O)N3CCOCC3)c3ccccn23)c1 gave LdMetRS: 9.091%; Mtb heat-shock: 0.7371%.
O=C(c1ccncc1F)N1CCc2onc(COc3cccnc3)c2C1 gave LdMetRS: 12.44%.
Cn1cc(CN2C[C@H]3CCC[C@@]3(COCC3CC3)C2)cn1 gave LdMetRS: 16.62%.
CN(CCC(=O)N1CCCC(Cc2cccnc2)C1)Cc1cccnc1 (configuration not stated) gave LdMetRS: 10.12%; Mtb heat-shock: -12.49%.
CCc1c(C(=O)Nc2ccc(F)c(C(=O)NC)c2)cnn1CC(C)C gave LdMetRS: 13.97%; Mtb heat-shock: 8.291%.
CN(Cc1ccccc1)CC(O)Cn1cnc2cc(F)ccc2c1=O (configuration not stated) gave LdMetRS: 20.7%; Mtb heat-shock: 9.747%.
CC(c1nc(C(C)(C)C)no1)N1CCN(Cc2ccco2)CC1 (configuration not stated) gave LdMetRS: 17.14%; Mtb heat-shock: -6.15%.
CCc1noc(C)c1C(=O)NCCCC(CC)(CC)C1OCCO1 gave LdMetRS: 7.692%; Mtb heat-shock: -26.13%.
CC(C)Cn1c2c(ccc1=O)CC(NC(=O)c1ccsc1)CC2 (configuration not stated) gave LdMetRS: 19.05%; Mtb heat-shock: 18.46%.
[H][C@@]12CN(Cc3ccc(Oc4ccccc4)cc3)C[C@]1(C(=O)O)CNC2=O gave Mtb heat-shock: 21.84%.
Cc1cccc(Nc2nccnc2C2CCCN2CC(N)=O)n1 (configuration not stated) gave LdMetRS: 18.08%; Mtb heat-shock: -8.268%.
CN1CCC(C(=O)N2CCC(=Cc3cccc(F)c3)CC2)CC1=O (configuration not stated) gave LdMetRS: -0.3436%; Mtb heat-shock: -2.543%.
Cc1nc2ccccc2c(=O)n1CCC(=O)N1CCCC1 gave LdMetRS: 14.75%; Mtb heat-shock: 12.35%.
CS(=O)(=O)N1CCN(CC(O)COc2ccc(F)cc2)CC1 (configuration not stated) gave LdMetRS: 9.028%; Mtb heat-shock: 0.2668%.
Cc1noc(CN(Cc2cccc(C#N)c2)Cc2cccs2)n1 gave LdMetRS: 15.47%; Mtb heat-shock: 21.66%.
CS(=O)(=O)NCC(=O)NCc1cccnc1-n1cnc2ccccc21 gave LdMetRS: -2.198%; Mtb heat-shock: -10.55%.
CC(NC(=O)N(C)Cc1ccsc1)c1ccc2c(c1)CCC(=O)N2 (configuration not stated) gave LdMetRS: 15.31%; Mtb heat-shock: 1.733%.
[H][C@]12CCCCN1CCC[C@H]2CCc1nc(C(C)C)no1 gave Mtb heat-shock: 15.48%.
Cc1noc(C(C)N(C)Cc2ccco2)n1 (configuration not stated) gave LdMetRS: 5.415%; Mtb heat-shock: 13.28%.
CCc1cnc2c(c1Nc1ccncc1)c(=O)n(C)c(=O)n2C gave LdMetRS: 10.78%; Mtb heat-shock: -14.59%.
CC(=O)NC1CCN(c2ncnc3c2c(C)nn3C)C1 (configuration not stated) gave LdMetRS: 15.25%; Mtb heat-shock: 13.02%.
CC(C)c1ccn(C2(C(=O)O)CCN(c3cc(C(N)=O)ccn3)CC2)n1 gave LdMetRS: 4.902%; Mtb heat-shock: 2.857%.
COc1ccc(OCc2nc(C(=O)N3CC[C@H](O)[C@@H](O)C3)co2)cc1 gave LdMetRS: 17.75%; Mtb heat-shock: 7.92%.
O=S(=O)(CCCNC1CCc2ncnn2C1)c1ccccc1 (configuration not stated) gave LdMetRS: 5.464%; Mtb heat-shock: -0.1865%.
CC(Cn1cncc1-c1cnn(C2CCCCC2)c1)N1CCCCC1 (configuration not stated) gave LdMetRS: 9.688%.
CC(C)Oc1ccccc1CNC(=O)N(C)CC(F)F gave LdMetRS: 25.09%; Mtb heat-shock: -2.155%.

2 of the entries, repeated:

For [H][C@@]12CN(Cc3ccc(Oc4ccccc4)cc3)C[C@]1(C(=O)O)CNC2=O the result was Mtb heat-shock: 21.84%.
For CC(=O)NC1CCN(c2ncnc3c2c(C)nn3C)C1 (configuration not stated) the result was LdMetRS: 15.25%; Mtb heat-shock: 13.02%.

Source: ChEMBL document CHEMBL3988442, “University of Dundee, Small-Polar-MMV Screening Library” (2021).